## Library screening results

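Whole-cell assay for inhibitors of Mycobacterium tuberculosis growth, labelled Cornell in the record; the read-out is not stated. The concentration is filed as 10 mM, unlikely as a test dose, so the dose is not known. The record gives no direction; compounds strong in two other growth screens of this library score well above the rest, so higher reads as stronger inhibition. Size under these conditions: about 53,000 compounds, about 900 of them at 50% or above in at least one test.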

Values are the deposited “Percent Effect”, in %. How 0% and 100% were set is not recorded. Most values in the screen are low, and negative values occur. This is an unselected part of the compounds tested.

compound,effect
O=C(O)C(F)(F)F.[H][C@@]12CN(Cc3cccs3)CCC[C@]1(C(=O)OCC)CN(C(C)=O)C2,9.701
O=C(O)C(F)(F)F.[H][C@@]12CCN(Cc3ccsc3)C[C@]1([H])[C@H](C(=O)Nc1cnccn1)CCO2,-46.15
COc1cc(OC)cc(C(=O)N2CCOCC2c2[nH]ncc2C)c1 (configuration not stated),-24.36
CN(C)c1no[n+]([O-])c1-c1ccccc1,-14.97
Cc1nc(-c2ccccc2)ccc1C(=O)N1CCN(CCO)CC1,29.77
COc1ccc(Cn2cc(C(=O)N(C)CCN(C)C)nn2)cc1,35.83
Cc1ccc(OCCN2CCC(c3ccnn3CCO)CC2)cc1,-1.235
CCCNC(=O)c1c(-n2cnnn2)sc2c1CCC2,-11.54
Cc1ccc(S(=O)(=O)n2ccn(C(=O)CC(C)C)c2=O)cc1,17.81
O=C(O)C(F)(F)F.c1nc(COCC2CC2)c2n1CCCN(CC1CC1)C2,14.06
N#Cc1nccnc1N1CCC(COCc2ccccc2)C1 (configuration not stated),4.332
CSCCC(=O)NCc1cc2n(n1)CCN(C(=O)N(C)C)C2,-8.048
[H][C@@]12CCN(C(=O)c3cscn3)[C@]1([H])CN(C(=O)c1ccsc1)C2,2.841
Clc1ccc(C(CNCc2cccnc2)n2cccn2)cc1 (configuration not stated),20.14
O=C(O)C(F)(F)F.O=C(O)C(F)(F)F.[H][C@@]12CN(Cc3cccnc3)C[C@H](C(=O)N3CCCO3)[C@]1([H])CCO2,12.5
Cc1cc(N2CCC(n3cc(CN4CCC[C@@H]4CO)nn3)CC2)ccn1,-2.138
[H][C@@]12CN(Cc3ccccc3Cl)CC[C@]1([H])N(C(C)=O)C[C@H]2c1ccsc1,1.629
CC1CCc2c(c3ccccc3[nH]c2=O)O1 (configuration not stated),1.665
Cc1cnc(NC(=O)c2csc(NC3CCCC3)n2)s1,99.29
CN(C(=O)CC1=CCCCC1)C1CCCN(C2Cc3ccccc3C2)C1 (configuration not stated),-16.66
CCN(CC)CCNC(=O)CCc1c(C)nn(-c2ccc(Cl)cc2)c1C,-8.312
CNc1ccnc(N2CCCC(C(=O)c3ccccn3)C2)n1 (configuration not stated),-13.11
O=C(O)C(F)(F)F.[H][C@]12C[C@H](C(=O)NC)N(C)[C@@]1([H])CN(S(=O)(=O)c1ccc(C)c(F)c1)C2,21.64
O=C(NCCNc1cnccn1)c1scnc1Cl,12.08
Cc1cc(N2CCC(c3nnc(CN(C)C)n3C3CC3)CC2)ccn1,-9.192
Cc1cc(C)n(CC2CCCCN2CC(=O)Nc2c(C)n[nH]c2C)n1 (configuration not stated),7.377
Nc1nc(C2CCN(C(=O)c3cnco3)CC2)cs1,13.39
N#Cc1ccccc1OCCN1CCC(C(=O)N2CCOCC2)CC1,-21.1
CCC1CN(C(=O)c2ccccc2N(C)C)CCN1C(C)C (configuration not stated),14.32
CCc1noc(C)c1C(=O)NCc1c(C)nn(CCOC)c1C,11.48
CC(C)NC(=O)c1ccn(COc2c(Cl)cccc2Cl)n1,21.87
CCn1nc(-c2ccccc2F)ccc1=O,25.06
CO[C@H]1CO[C@@]2(CCCN(C(=O)C3=CCCCC3)C2)C1,24.45
O=C(c1cccc(Cl)c1F)N1CCOC2(CNCCOC2)C1 (configuration not stated),14.06
COCc1cc(C[C@@H]2CC[C@H](O)[C@@H](CN(C)C)O2)no1,-4.659
FC1(F)CCN(Cc2ccncc2)CC12CCN(Cc1ccccn1)C2.O=C(O)C(F)(F)F.O=C(O)C(F)(F)F.O=C(O)C(F)(F)F (configuration not stated),-11.17
Cc1cc(C(=O)NC2CCCOc3cc(Cl)ccc32)n(C)n1 (configuration not stated),10.52
COc1ccc(-c2cc[nH]n2)cc1CNC1CCCC1,43.69
CCc1ncc2c(n1)CN(Cc1nc(-c3ccco3)oc1C)CC2,-14.23
CCc1nc(CN(CCc2ccccc2)C2CCN(C)CC2)no1,8.271
O=C(O)C(F)(F)F.O=C(O)C(F)(F)F.[H][C@]12C[C@@H](Cn3cncn3)N(C(C)=O)[C@@]1([H])CCN(Cc1ccncc1)C2,12.83
Cc1cc2c(cc1Cl)C=CC1(CCN(CC(=O)N3CCCC3)CC1)O2,63.41
COCCN(C)c1cnn(C)c(=O)c1Br,-7.924
Cc1nn(C)cc1C(C)Nc1ncnc2sccc12 (configuration not stated),-25.99
[H][C@]12CN(Cc3cccc(OC(F)(F)F)c3)CCN1C(=O)N(CCOC)C2,6.93
Cn1cc(CN2CCc3c(COCC4CC4)cncc3C2)cn1.O=C(O)C(F)(F)F.O=C(O)C(F)(F)F,-27.29
COc1cc(C)ccc1OCc1nc(C(=O)N2CCC(C)CC2)co1,13.3
Cc1nc(CN2CCc3cc(C(=O)O)c(N(C)C)nc3CC2)cs1.O=C(O)C(F)(F)F.O=C(O)C(F)(F)F,32.16
COC[C@@H]1CCC[C@]12CN(Cc1ccco1)CCO2.O=C(O)C(F)(F)F,16.05
[H][C@@]12CCN(Cc3ccncc3)C[C@@]1([H])O[C@H](C)C2,-3.66
Cc1cncnc1C1CCN(CC(N)=O)CC1,-0.3763
CCC(NC(=O)C(C)(C)C)c1ccccc1C (configuration not stated),-16.09

The last 4 entries again:

- COC[C@@H]1CCC[C@]12CN(Cc1ccco1)CCO2.O=C(O)C(F)(F)F : 16.05%
- [H][C@@]12CCN(Cc3ccncc3)C[C@@]1([H])O[C@H](C)C2 : -3.66%
- Cc1cncnc1C1CCN(CC(N)=O)CC1 : -0.3763%
- CCC(NC(=O)C(C)(C)C)c1ccccc1C (configuration not stated) : -16.09%

The values are deposited in ChEMBL (CHEMBL3988442, “University of Dundee, Small-Polar-MMV Screening Library” (2021)).